Results as given in patent US20230039219A1, “Improved Cell-Permeable Nuclear Import Inhibitor Synthetic Peptide for Inhibition of Cytokine Storm or Inflammatory Disease and Use Thereof” (priority 2020, published 2023).
At least one peptide structure holds a part that was inferred or is arguable (an end, a ring closure or a residue). Bridge positions count the residues as written; N and C are the ends. Peptide text beside a SMILES is read from it.

Key:
[1] = test system: RAW264.7 cells; assay: Flow cytometry for cell permeability; format: cell-based, murine; settings: FITC-labeled, uptake in RAW264.7 cells, FIG. 8
[2] = test system: NF-κB (phosphorylated and unphosphorylated p65); assay: Nuclear translocation of SRTFs (Western blot of nuclear/cytoplasmic fractions, immunostaining); format: cell-based, murine; settings: RAW264.7 cells
[3] = test system: AP-1 (phosphorylated c-Jun); assay: Nuclear translocation of SRTFs (Western blot, immunostaining); format: cell-based, murine; settings: RAW264.7 cells
[4] = test system: STAT3; assay: as above; format: cell-based, murine; settings: RAW264.7 cells
[5] = test system: STAT1; assay: as above; format: cell-based, murine; settings: RAW264.7 cells, LPS/IFN-γ; FIG. 13, 14
[6] = test system: NFAT; assay: as above; format: cell-based, murine; settings: RAW264.7 cells, LPS/IFN-γ; FIG. 13, 14
[7] = test system: LPS inhalation-induced acute pneumonitis; assay: LPS inhalation-induced acute pneumonitis model; format: in vivo, C57BL/6 mice
[8] = test system: Poly I:C inhalation-induced acute pneumonitis; assay: Poly I:C inhalation-induced acute pneumonitis model; format: in vivo, C57BL/6 mice
[9] = test system: BLM induced pulmonary fibrosis; assay: Bleomycin-induced pulmonary fibrosis model; format: in vivo, C57BL/6 mice; settings: IV treatment; FIG. 31, 32
[10] = test system: LPS/D-Gal acute liver injury model; assay: LPS/D-galactosamine-induced acute liver injury model
[11] = test system: LPS/Poly I:C induced pneumonitis; assay: Intratracheal LPS/Poly I:C induced pneumonitis model

Compound: CC[C@H](C)[C@H](N)C(=O)N[C@@H](C)C(=O)N[C@@H](C)C(=O)N[C@H](C(=O)N[C@@H](CC(C)C)C(=O)N[C@@H](C)C(=O)N[C@@H](C)C(=O)N1CCC[C@H]1C(=O)N[C@@H](C)C(=O)N[C@@H](CC(C)C)C(=O)N[C@H](C(=O)N1CCC[C@H]1C(=O)N[C@H]1CSSC[C@@H](C(=O)O)NC(=O)[C@@H]2CCCN2C(=O)[C@H](CCSC)NC(=O)[C@H](CC(C)C)NC(=O)[C@H](CCCCN)NC(=O)[C@H](CCC(N)=O)NC(=O)[C@H](CCCNC(=N)N)NC(=O)[C@H](CCCCN)NC(=O)[C@H](CCCNC(=N)N)NC(=O)[C@H](CCC(N)=O)NC(=O)[C@H](C(C)C)NC1=O)C(C)C)C(C)C [iCP-NI] (H-IAAVLAAPALVPCVQRKRQKLMPC-OH; disulfide 13-24; N-terminus and C-terminus assumed)
- cell permeability relative to the NLS without aMTD827 [1]: 1000 times
- nuclear translocation of NF-κB ([2]; LPS and Poly I:C, FIG. 11, 12): inhibited
- nuclear accumulation of NF-κB ([2]; LPS/IFN-γ, FIG. 13, 14): blocked
- nuclear translocation of AP-1 ([3]; LPS and Poly I:C, FIG. 11, 12): inhibited
- nuclear accumulation of AP-1 ([3]; LPS/IFN-γ, FIG. 13, 14): blocked
- nuclear translocation of STAT3 ([4]; LPS and Poly I:C, FIG. 11, 12): inhibited
- nuclear accumulation of STAT3 (p-STAT3) ([4]; LPS/IFN-γ, FIG. 13, 14): blocked
- nuclear accumulation of STAT1 (p-STAT1) [5]: blocked
- nuclear accumulation of NFAT [6]: blocked
- increases in the number of cells recovered in BALF ([7]; 5˜6 folds increases induced by inhalation, FIG. 25): blocked
- changes in lung histology ([7]; treatments initiated before LPS, FIG. 23): blocked the greater part of these responses
- IL-6 expression ([8]; lung tissue, FIG. 26): decreases
- IL-12 expression ([8]; lung tissue, FIG. 26): decreases
- MCP-1 expression ([8]; lung tissue, FIG. 26): decreases
- TNF-α expression ([8]; lung tissue, FIG. 26): decreases
- changes in lung histology ([8]; treatments initiated before Poly I:C, FIG. 24): blocked the greater part of these responses
- fibrotic changes (loss of alveolar structure, inflammatory cell infiltration, hyalinization, collagen deposition) [9]: largely blocked
- IL-6 expression ([10]; FIG. 16): suppressed
- TNF-α expression ([10]; FIG. 16): suppressed
- liver damage and massive liver apoptosis ([10]; FIG. 17): protected
- IL-10 expression ([10]; anti-inflammatory cytokine, FIG. 16): induced
- protection ([10]; four 50 mg/Kg treatments): 100%
- protection ([10]; intraperitoneal (IP) injection, FIG. 3): 75%
- protection ([10]; intravenous (IV) injection, FIG. 3): 100%
- protection ([10]; six 25 mg/Kg treatments): 100%
- extent of alveolar injury ([11]; FIG. 20): markedly improved
- lung histology ([11]; epithelial hyperplasia, monocyte infiltration, loss of alveolar structure, FIG. 19): markedly improved
